The subject of the series is activated protein C (APC). In words: BLI. The settings on record: elution buffer 10 mM Tris-HCl, 144 mM NaCl, pH 7.4, 5 mM EDTA, bead capture at RT, 30 min, commercial protein, label: 3'-TEG-biotin, single-stranded DNA.

For at least one entry, the source does not settle the construct or the ends of the probe. The comparison behind a weaker result is the experiment's own reference, which may not be listed here. At least one verdict was read from the data and is not stated in words by the source.

Consider “GCCTCCTAACTGAGCTGTACTCGACTTATCCCGGATGGGGCTCTTAGGAGGC [HS02-52G]”, for which the binding result (dissociation in 5 mM EDTA (Table S1: ka 6.4e4 1/Ms, kd 2.3e-2 1/s), kd 9x that in binding buffer) is on record as “binds more weakly” and the binding result (dissociation in 1 M NaCl, kd 3.4x that in binding buffer) is “binds more weakly”.

As to “AAGCAGTGGTAAGTAGGTTGACACATTAGGGCGGGGTACTCCTATCACGTATGGGGGCCTGTGTCTCTTCGAGCAATCCACAC [NB1-83]”, the binding result (binding buffer, 500 nM APC) is listed as “binds”.

Turning to “GATTGTTACTGTCACGAGGATATCACGTATGGGGGGCCGGCATGAGGGCCGCGCGTGACAATAGCACATTAGTTCAGATAC [NB2-81]”, the binding result (binding buffer, 500 nM APC) is “binds”.

In the case of “TACTGTCACGAGGATATCACGTATGGGGGGCCGGCATGAGGGCCGCGCGTGACAGTA [NB2-57G]”, the binding result (binding buffer, 500 nM APC) is “binds”.

Regarding “GACACATTAGGGCGGGGTACTCCTATCACGTATGGGGGCCTGTGTC [NB1-46]”, the binding result (binding buffer, 500 nM APC) is listed as “binds”.
